The record followed here is publication doi:10.1101/2020.08.03.234229.

The target in test [1] is T1, His6-TSEN15, expressed in HEK293 cells (human), Q8WW01.
T1 chain: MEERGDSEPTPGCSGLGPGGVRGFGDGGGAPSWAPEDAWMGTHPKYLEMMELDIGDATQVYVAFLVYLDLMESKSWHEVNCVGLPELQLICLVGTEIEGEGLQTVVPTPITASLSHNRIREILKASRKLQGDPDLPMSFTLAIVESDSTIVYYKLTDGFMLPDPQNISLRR
Kind of test: pull-down. Particulars: remark: other sources report otherwise.

In test [2] the target is T2, tRNA splicing endonuclease subunit TSEN15 (human), Q8WW01.
T2 chain: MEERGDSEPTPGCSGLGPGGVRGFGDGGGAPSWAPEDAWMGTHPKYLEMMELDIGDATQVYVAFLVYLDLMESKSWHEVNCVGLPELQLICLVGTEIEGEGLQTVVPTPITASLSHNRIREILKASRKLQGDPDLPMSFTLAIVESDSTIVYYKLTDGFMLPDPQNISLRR
Kind of test: co-expression and co-purification. Particulars: remark: other sources report otherwise.

Test [3] deals with T3, tRNA splicing endonuclease TSEN, TSEN2–15–34–54 heterotetramer (human) (UniProt Q8NCE0+Q8WW01+Q9BSV6+Q7Z6J9).
T3 sequence (chain, high degree of phosphorylation (sites not given)) 1: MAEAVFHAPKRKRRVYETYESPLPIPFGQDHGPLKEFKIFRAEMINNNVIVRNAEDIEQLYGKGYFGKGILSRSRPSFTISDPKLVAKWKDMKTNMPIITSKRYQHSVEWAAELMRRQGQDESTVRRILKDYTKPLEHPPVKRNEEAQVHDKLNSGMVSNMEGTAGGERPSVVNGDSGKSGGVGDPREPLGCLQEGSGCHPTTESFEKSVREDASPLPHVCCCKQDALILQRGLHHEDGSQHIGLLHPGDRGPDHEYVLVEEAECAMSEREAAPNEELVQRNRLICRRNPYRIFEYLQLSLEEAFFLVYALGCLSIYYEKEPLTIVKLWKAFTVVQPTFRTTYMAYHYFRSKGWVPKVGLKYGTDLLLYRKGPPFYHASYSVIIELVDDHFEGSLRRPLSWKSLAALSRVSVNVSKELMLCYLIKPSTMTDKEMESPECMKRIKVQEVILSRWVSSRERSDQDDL
T3 sequence (chain, high degree of phosphorylation (sites not given)) 2: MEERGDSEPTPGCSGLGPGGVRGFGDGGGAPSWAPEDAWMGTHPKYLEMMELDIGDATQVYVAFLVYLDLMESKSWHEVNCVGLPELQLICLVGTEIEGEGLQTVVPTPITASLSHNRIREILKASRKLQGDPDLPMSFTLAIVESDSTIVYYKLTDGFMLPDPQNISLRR
T3 sequence (chain, high degree of phosphorylation (sites not given)) 3: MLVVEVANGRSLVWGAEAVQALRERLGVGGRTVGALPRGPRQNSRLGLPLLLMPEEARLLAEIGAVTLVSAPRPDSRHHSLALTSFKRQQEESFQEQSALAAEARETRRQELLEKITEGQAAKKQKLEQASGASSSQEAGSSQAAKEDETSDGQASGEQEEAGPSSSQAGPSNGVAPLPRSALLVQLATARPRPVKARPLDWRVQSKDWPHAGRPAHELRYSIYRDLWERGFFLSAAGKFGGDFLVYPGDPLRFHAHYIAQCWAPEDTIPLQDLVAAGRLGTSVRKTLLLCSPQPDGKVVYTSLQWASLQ
T3 sequence (chain, high degree of phosphorylation (sites not given)) 4: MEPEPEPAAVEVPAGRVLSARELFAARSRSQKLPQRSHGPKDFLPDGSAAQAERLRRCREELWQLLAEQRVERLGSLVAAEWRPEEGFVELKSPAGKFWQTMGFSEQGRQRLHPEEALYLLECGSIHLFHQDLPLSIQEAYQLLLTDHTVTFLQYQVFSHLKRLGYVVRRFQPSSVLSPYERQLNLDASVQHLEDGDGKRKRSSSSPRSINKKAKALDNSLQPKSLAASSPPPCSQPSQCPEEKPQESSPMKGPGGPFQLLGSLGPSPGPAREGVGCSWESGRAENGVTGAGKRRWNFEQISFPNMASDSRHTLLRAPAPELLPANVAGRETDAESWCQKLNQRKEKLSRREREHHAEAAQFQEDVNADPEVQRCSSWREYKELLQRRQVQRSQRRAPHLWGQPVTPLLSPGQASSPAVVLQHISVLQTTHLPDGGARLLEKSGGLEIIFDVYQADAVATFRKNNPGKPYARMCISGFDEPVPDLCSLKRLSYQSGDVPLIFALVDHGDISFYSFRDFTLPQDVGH
Kind of test: co-expression and co-purification.

The target of test [4] is T4, catalytically inactive TSEN tetramer (TSEN2 H377A and TSEN34 H255A double mutant) (human) (UniProt Q8NCE0+Q8WW01+Q9BSV6+Q7Z6J9).
T4 sequence 1: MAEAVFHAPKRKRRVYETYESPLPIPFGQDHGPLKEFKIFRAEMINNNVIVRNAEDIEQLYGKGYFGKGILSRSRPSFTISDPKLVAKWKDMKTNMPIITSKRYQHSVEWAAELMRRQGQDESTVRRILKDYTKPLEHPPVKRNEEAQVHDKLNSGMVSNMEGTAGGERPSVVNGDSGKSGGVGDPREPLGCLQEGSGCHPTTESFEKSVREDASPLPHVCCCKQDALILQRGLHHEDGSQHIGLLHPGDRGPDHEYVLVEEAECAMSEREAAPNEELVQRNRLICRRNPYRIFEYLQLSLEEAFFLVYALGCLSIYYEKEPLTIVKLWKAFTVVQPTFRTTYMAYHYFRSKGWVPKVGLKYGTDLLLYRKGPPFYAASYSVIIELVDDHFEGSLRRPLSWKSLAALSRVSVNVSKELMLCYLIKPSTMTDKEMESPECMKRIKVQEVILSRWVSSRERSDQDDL
T4 sequence 2: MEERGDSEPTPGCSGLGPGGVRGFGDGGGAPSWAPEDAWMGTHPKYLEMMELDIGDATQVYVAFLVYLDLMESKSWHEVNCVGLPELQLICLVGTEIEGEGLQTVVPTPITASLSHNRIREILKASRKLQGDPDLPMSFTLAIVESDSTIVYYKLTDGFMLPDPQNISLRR
T4 sequence 3: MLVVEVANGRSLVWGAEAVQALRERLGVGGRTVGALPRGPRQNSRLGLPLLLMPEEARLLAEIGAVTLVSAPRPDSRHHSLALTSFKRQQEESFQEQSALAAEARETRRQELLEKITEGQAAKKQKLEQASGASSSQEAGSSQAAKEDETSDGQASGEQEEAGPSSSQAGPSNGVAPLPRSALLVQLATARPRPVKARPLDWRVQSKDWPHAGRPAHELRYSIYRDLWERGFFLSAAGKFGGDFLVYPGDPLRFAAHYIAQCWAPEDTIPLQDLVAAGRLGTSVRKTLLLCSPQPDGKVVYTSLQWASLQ
T4 sequence 4: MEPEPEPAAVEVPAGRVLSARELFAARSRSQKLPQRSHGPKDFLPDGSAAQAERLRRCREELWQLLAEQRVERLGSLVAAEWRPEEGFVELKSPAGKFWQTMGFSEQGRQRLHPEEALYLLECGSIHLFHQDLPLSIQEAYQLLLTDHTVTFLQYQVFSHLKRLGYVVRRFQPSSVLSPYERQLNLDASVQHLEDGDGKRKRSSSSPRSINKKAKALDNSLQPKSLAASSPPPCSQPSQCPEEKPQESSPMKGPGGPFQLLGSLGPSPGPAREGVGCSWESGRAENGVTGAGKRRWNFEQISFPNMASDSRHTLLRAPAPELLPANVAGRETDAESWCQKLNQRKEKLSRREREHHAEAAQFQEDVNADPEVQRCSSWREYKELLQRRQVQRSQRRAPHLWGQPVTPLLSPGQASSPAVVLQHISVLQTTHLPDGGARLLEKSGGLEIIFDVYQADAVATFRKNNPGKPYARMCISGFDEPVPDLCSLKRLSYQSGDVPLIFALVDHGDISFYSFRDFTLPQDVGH
The test can be described thus: co-expression and co-purification.

The target of test [5] is T3, tRNA splicing endonuclease TSEN, TSEN2–15–34–54 heterotetramer (human). Kind of test: native MS.
Test [6] has as its target T5, wt TSEN15 of the pull-down of Fig. 3e (human) (UniProt Q8WW01).
T5 sequence: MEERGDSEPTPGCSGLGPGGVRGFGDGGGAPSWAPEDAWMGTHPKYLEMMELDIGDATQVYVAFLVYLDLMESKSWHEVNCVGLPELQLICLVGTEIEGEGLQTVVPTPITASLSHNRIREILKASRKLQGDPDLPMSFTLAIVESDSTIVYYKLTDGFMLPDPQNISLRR
Kind of test: pull-down.

For test [7], the target named is T6, TSEN15 H116Y (PCH mutation) of the pull-down of Fig. 3e (human) (UniProt Q8WW01).
T6 sequence: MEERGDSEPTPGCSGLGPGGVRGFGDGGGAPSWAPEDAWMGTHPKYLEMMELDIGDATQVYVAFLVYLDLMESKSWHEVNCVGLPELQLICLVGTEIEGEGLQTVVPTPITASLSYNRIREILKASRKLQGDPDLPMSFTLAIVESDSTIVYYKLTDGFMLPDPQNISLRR
Kind of test: pull-down.

Results are given in words; binding and its absence hold for the method and conditions named. For some of these results: In cells and extracts the contact can be indirect. Some entries that bind do so weakly or less than the wild type. For some of these results: Tags and fused reporters may be left off the sequences shown.

B1: TSEN54, expressed in HEK293 cells, Q7Z6J9 1-526 (protein)
chain: MEPEPEPAAVEVPAGRVLSARELFAARSRSQKLPQRSHGPKDFLPDGSAAQAERLRRCREELWQLLAEQRVERLGSLVAAEWRPEEGFVELKSPAGKFWQTMGFSEQGRQRLHPEEALYLLECGSIHLFHQDLPLSIQEAYQLLLTDHTVTFLQYQVFSHLKRLGYVVRRFQPSSVLSPYERQLNLDASVQHLEDGDGKRKRSSSSPRSINKKAKALDNSLQPKSLAASSPPPCSQPSQCPEEKPQESSPMKGPGGPFQLLGSLGPSPGPAREGVGCSWESGRAENGVTGAGKRRWNFEQISFPNMASDSRHTLLRAPAPELLPANVAGRETDAESWCQKLNQRKEKLSRREREHHAEAAQFQEDVNADPEVQRCSSWREYKELLQRRQVQRSQRRAPHLWGQPVTPLLSPGQASSPAVVLQHISVLQTTHLPDGGARLLEKSGGLEIIFDVYQADAVATFRKNNPGKPYARMCISGFDEPVPDLCSLKRLSYQSGDVPLIFALVDHGDISFYSFRDFTLPQDVGH
B1: the binding entry in test [1] was “binds”.

B2: tRNA splicing endonuclease subunit TSEN54, Q7Z6J9 1-526 (protein)
chain: MEPEPEPAAVEVPAGRVLSARELFAARSRSQKLPQRSHGPKDFLPDGSAAQAERLRRCREELWQLLAEQRVERLGSLVAAEWRPEEGFVELKSPAGKFWQTMGFSEQGRQRLHPEEALYLLECGSIHLFHQDLPLSIQEAYQLLLTDHTVTFLQYQVFSHLKRLGYVVRRFQPSSVLSPYERQLNLDASVQHLEDGDGKRKRSSSSPRSINKKAKALDNSLQPKSLAASSPPPCSQPSQCPEEKPQESSPMKGPGGPFQLLGSLGPSPGPAREGVGCSWESGRAENGVTGAGKRRWNFEQISFPNMASDSRHTLLRAPAPELLPANVAGRETDAESWCQKLNQRKEKLSRREREHHAEAAQFQEDVNADPEVQRCSSWREYKELLQRRQVQRSQRRAPHLWGQPVTPLLSPGQASSPAVVLQHISVLQTTHLPDGGARLLEKSGGLEIIFDVYQADAVATFRKNNPGKPYARMCISGFDEPVPDLCSLKRLSYQSGDVPLIFALVDHGDISFYSFRDFTLPQDVGH
modifications: here or on the partner: high degree of phosphorylation (sites not given)
B2: the binding result in test [2] was “binds”.

B3: RNA kinase CLP1 (enzyme, UniProt Q92989 1-425)
chain: MGEEANDDKKPTTKFELERETELRFEVEASQSVQLELLTGMAEIFGTELTRNKKFTFDAGAKVAVFTWHGCSVQLSGRTEVAYVSKDTPMLLYLNTHTALEQMRRQAEKEEERGPRVMVVGPTDVGKSTVCRLLLNYAVRLGRRPTYVELDVGQGSVSIPGTMGALYIERPADVEEGFSIQAPLVYHFGSTTPGTNIKLYNKITSRLADVFNQRCEVNRRASVSGCVINTCGWVKGSGYQALVHAASAFEVDVVVVLDQERLYNELKRDLPHFVRTVLLPKSGGVVERSKDFRRECRDERIREYFYGFRGCFYPHAFNVKFSDVKIYKVGAPTIPDSCLPLGMSQEDNQLKLVPVTPGRDMVHHLLSVSTAEGTEENLSETSVAGFIVVTSVDLEHQVFTVLSPAPRPLPKNFLLIMDIRFMDLK
As to B3, the binding result in test [3], in test [4] and in test [5] was “binds” throughout.

B4: TSEN34 of the pull-down of Fig. 3e (protein, UniProt Q9BSV6 1-310)
chain: MLVVEVANGRSLVWGAEAVQALRERLGVGGRTVGALPRGPRQNSRLGLPLLLMPEEARLLAEIGAVTLVSAPRPDSRHHSLALTSFKRQQEESFQEQSALAAEARETRRQELLEKITEGQAAKKQKLEQASGASSSQEAGSSQAAKEDETSDGQASGEQEEAGPSSSQAGPSNGVAPLPRSALLVQLATARPRPVKARPLDWRVQSKDWPHAGRPAHELRYSIYRDLWERGFFLSAAGKFGGDFLVYPGDPLRFHAHYIAQCWAPEDTIPLQDLVAAGRLGTSVRKTLLLCSPQPDGKVVYTSLQWASLQ
Take B4: the binding entry in test [6] and in test [7] was “binds” each time.
